Test results taken from the supplement of paper PMC11438910.
The other results are listed elsewhere or left out. The signal is at background level for most entries.

Experiments:
Assay in all cases: fluorescence intensity of antibody binding to polysaccharide-coupled beads; higher = stronger binding
[1] = molecular target: pneumococcal polysaccharide Pn11A
[2] = molecular target: pneumococcal polysaccharide Pn11B
[3] = molecular target: pneumococcal polysaccharide Pn11C
[4] = molecular target: pneumococcal polysaccharide Pn11D
[5] = molecular target: pneumococcal polysaccharide Pn11F
[6] = molecular target: pneumococcal polysaccharide Pn12A
[7] = molecular target: pneumococcal polysaccharide Pn12B
[8] = molecular target: pneumococcal polysaccharide Pn12F
[9] = molecular target: pneumococcal polysaccharide Pn13
[10] = molecular target: pneumococcal polysaccharide Pn14
[11] = molecular target: pneumococcal polysaccharide Pn15A
[12] = molecular target: pneumococcal polysaccharide Pn15B
[13] = antibody concentration 81.7561 ng/mL
[14] = antibody concentration 437.17 ng/mL
[15] = antibody concentration 2337.65 ng/mL
[16] = antibody concentration 12500 ng/mL
[17] = antibody concentration 0.1 ng/mL
[18] = antibody concentration 0.534724 ng/mL
[19] = antibody concentration 2.8593 ng/mL
[20] = antibody concentration 15.2894 ng/mL

B1: 3S41.4 (protein)
chain 1: EVQLVESGGGLVQPGGSLRLSCATSGFTFSNYWMYWFRQAPGKGLEWVSTISGSSTNTYYSGSVKGRFTISRDNAKNTLYLQMNSLRAEDTAVYYCARRGTDSSHWYFDLWGPGTPITVSS
chain 2: EIVMTQSPATLSLSPGERATLSCRASQSVSSNLAWYQQKPGQGPRLLIYDASNRATGIPDRFGGSGSGTDFTLTISSLEPEDVGVYYCQQESNWPLTFGGGTKVEIK
fluorescence intensity [1, 13]: 26.2 MFI | fluorescence intensity [1, 14]: 29.5 MFI | fluorescence intensity [1, 15]: 36 MFI | fluorescence intensity [1, 16]: 51 MFI | fluorescence intensity [2, 17]: 24 MFI | fluorescence intensity [2, 18]: 26.2 MFI | fluorescence intensity [2, 19]: 23.5 MFI | fluorescence intensity [2, 20]: 26.2 MFI | fluorescence intensity [2, 13]: 25 MFI | fluorescence intensity [2, 14]: 27.5 MFI | fluorescence intensity [2, 15]: 31.2 MFI | fluorescence intensity [2, 16]: 41.8 MFI | fluorescence intensity [3, 17]: 23 MFI | fluorescence intensity [3, 18]: 22.5 MFI | fluorescence intensity [3, 19]: 21.2 MFI | fluorescence intensity [3, 20]: 20.5 MFI | fluorescence intensity [3, 13]: 20 MFI | fluorescence intensity [3, 14]: 24 MFI | fluorescence intensity [3, 15]: 40 MFI | fluorescence intensity [3, 16]: 140 MFI | fluorescence intensity [4, 17]: 21.5 MFI | fluorescence intensity [4, 18]: 22.5 MFI | fluorescence intensity [4, 19]: 22.5 MFI | fluorescence intensity [4, 20]: 23 MFI | fluorescence intensity [4, 13]: 23.5 MFI | fluorescence intensity [4, 14]: 24 MFI | fluorescence intensity [4, 15]: 29.5 MFI | fluorescence intensity [4, 16]: 78.2 MFI | fluorescence intensity [5, 17]: 11.5 MFI | fluorescence intensity [5, 18]: 13 MFI | fluorescence intensity [5, 19]: 16.2 MFI | fluorescence intensity [5, 20]: 14.5 MFI | fluorescence intensity [5, 13]: 15 MFI | fluorescence intensity [5, 14]: 17.2 MFI | fluorescence intensity [5, 15]: 18.8 MFI | fluorescence intensity [5, 16]: 26 MFI | fluorescence intensity [6, 17]: 14.5 MFI | fluorescence intensity [6, 18]: 13.5 MFI | fluorescence intensity [6, 19]: 14 MFI | fluorescence intensity [6, 20]: 14.5 MFI | fluorescence intensity [6, 13]: 15 MFI | fluorescence intensity [6, 14]: 16.2 MFI | fluorescence intensity [6, 15]: 22 MFI | fluorescence intensity [6, 16]: 44.8 MFI | fluorescence intensity [7, 17]: 16 MFI | fluorescence intensity [7, 18]: 15.5 MFI | fluorescence intensity [7, 19]: 14 MFI | fluorescence intensity [7, 20]: 14 MFI | fluorescence intensity [7, 13]: 15 MFI | fluorescence intensity [7, 14]: 18.8 MFI | fluorescence intensity [7, 15]: 21.5 MFI | fluorescence intensity [7, 16]: 48.2 MFI | fluorescence intensity [8, 17]: 17.8 MFI | fluorescence intensity [8, 18]: 18.8 MFI | fluorescence intensity [8, 19]: 16.8 MFI | fluorescence intensity [8, 20]: 18.5 MFI | fluorescence intensity [8, 13]: 17.8 MFI | fluorescence intensity [8, 14]: 20.2 MFI | fluorescence intensity [8, 15]: 21.5 MFI | fluorescence intensity [8, 16]: 44 MFI | fluorescence intensity [9, 17]: 18 MFI | fluorescence intensity [9, 18]: 20.5 MFI | fluorescence intensity [9, 19]: 18 MFI | fluorescence intensity [9, 20]: 18 MFI | fluorescence intensity [9, 13]: 19 MFI | fluorescence intensity [9, 14]: 17.5 MFI | fluorescence intensity [9, 15]: 23 MFI | fluorescence intensity [9, 16]: 39 MFI | fluorescence intensity [10, 17]: 14 MFI | fluorescence intensity [10, 18]: 15 MFI | fluorescence intensity [10, 19]: 14 MFI | fluorescence intensity [10, 20]: 14 MFI | fluorescence intensity [10, 13]: 14.5 MFI | fluorescence intensity [10, 14]: 16 MFI | fluorescence intensity [10, 15]: 24 MFI | fluorescence intensity [10, 16]: 99 MFI | fluorescence intensity [11, 17]: 12 MFI | fluorescence intensity [11, 18]: 12.2 MFI | fluorescence intensity [11, 19]: 13 MFI | fluorescence intensity [11, 20]: 13 MFI | fluorescence intensity [11, 13]: 13 MFI | fluorescence intensity [11, 14]: 14 MFI | fluorescence intensity [11, 15]: 14 MFI | fluorescence intensity [11, 16]: 19 MFI | fluorescence intensity [12, 17]: 17 MFI | fluorescence intensity [12, 18]: 18.8 MFI | fluorescence intensity [12, 19]: 19 MFI | fluorescence intensity [12, 20]: 18.5 MFI | fluorescence intensity [12, 13]: 17.5 MFI | fluorescence intensity [12, 14]: 21.5 MFI
